# In the supplement of paper PMC12819154, “High-throughput peptide-centric local stability assay extends protein–ligand identification to membrane proteins, tissues and bacteria” (Nature Structural & Molecular Biology, 2025):
# Protein sequences, listed by entry. Tags and fused reporters are not part of them. Lines headed by an entry give the natural chain unless they say otherwise; changes in a name come on top.
# UniProt Q9EQ06: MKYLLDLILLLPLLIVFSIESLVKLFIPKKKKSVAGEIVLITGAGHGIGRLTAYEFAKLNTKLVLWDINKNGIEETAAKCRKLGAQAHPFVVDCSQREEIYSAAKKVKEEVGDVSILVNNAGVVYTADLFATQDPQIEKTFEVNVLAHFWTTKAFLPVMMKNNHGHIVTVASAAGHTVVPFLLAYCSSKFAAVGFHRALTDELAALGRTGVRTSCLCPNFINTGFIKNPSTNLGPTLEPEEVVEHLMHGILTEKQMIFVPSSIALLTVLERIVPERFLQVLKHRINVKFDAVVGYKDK
# UniProt Q9QXY6: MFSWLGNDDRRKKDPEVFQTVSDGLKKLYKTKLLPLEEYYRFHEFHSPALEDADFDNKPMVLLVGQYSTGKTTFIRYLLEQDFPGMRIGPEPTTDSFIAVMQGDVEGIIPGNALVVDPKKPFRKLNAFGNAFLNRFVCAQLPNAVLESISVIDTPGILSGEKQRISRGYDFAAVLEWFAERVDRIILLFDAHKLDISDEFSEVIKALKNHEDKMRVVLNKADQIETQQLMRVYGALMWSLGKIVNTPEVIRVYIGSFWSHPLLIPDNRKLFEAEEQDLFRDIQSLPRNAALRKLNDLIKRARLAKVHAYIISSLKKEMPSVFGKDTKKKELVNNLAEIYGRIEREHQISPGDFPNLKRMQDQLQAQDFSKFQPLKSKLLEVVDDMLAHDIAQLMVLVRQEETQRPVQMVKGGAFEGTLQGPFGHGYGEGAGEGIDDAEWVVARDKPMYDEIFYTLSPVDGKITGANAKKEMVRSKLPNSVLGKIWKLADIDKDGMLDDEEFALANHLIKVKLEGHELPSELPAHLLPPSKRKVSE
# UniProt Q9DCS3: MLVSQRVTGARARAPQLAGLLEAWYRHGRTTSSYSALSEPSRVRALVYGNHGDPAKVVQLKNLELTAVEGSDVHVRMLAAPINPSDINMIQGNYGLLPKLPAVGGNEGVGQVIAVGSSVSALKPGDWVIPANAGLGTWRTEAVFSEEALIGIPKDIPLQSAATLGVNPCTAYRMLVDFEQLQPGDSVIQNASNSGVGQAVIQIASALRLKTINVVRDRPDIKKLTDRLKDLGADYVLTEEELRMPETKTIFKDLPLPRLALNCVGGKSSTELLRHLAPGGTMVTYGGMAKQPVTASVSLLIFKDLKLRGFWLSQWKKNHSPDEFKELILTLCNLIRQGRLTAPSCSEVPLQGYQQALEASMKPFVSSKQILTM
# UniProt Q9DCX2: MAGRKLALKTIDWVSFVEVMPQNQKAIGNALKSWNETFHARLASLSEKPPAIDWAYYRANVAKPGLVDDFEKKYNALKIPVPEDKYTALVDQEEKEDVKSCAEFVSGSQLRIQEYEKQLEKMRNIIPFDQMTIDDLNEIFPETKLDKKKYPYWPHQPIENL
# UniProt Q9ET54: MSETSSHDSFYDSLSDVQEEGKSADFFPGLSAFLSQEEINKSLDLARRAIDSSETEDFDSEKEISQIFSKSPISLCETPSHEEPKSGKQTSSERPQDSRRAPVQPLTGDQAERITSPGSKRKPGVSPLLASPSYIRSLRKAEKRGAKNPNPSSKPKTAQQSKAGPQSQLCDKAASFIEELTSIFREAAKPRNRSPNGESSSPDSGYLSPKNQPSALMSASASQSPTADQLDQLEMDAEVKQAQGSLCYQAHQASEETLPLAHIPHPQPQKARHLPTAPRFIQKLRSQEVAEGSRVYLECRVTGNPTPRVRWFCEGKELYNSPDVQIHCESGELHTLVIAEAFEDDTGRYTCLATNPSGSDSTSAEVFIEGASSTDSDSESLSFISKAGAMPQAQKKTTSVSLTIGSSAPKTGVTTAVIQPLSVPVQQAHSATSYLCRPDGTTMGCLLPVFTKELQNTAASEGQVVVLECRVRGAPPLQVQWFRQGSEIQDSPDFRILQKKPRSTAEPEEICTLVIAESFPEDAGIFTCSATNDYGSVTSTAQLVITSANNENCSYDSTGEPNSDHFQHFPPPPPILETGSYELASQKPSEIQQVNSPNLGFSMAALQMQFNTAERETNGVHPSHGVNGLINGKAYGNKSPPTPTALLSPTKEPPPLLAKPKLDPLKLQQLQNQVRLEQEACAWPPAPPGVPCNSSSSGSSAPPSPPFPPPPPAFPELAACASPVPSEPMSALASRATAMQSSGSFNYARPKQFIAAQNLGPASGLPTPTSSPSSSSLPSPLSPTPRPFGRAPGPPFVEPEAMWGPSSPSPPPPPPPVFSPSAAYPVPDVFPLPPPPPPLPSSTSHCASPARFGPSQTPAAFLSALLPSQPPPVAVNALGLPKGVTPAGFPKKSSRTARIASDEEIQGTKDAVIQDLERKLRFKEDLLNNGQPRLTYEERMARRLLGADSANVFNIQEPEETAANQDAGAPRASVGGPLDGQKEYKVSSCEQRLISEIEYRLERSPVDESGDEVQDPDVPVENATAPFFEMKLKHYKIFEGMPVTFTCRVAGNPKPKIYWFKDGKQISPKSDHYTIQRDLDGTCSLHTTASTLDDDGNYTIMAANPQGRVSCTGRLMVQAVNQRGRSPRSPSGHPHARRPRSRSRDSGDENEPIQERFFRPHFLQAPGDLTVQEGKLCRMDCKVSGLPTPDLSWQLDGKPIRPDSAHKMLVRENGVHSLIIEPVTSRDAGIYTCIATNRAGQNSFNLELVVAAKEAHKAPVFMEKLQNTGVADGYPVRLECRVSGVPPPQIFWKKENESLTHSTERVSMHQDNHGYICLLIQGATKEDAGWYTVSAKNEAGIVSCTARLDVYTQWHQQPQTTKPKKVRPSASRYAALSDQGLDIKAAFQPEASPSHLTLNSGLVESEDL
# UniProt Q9JLV5, whole entry: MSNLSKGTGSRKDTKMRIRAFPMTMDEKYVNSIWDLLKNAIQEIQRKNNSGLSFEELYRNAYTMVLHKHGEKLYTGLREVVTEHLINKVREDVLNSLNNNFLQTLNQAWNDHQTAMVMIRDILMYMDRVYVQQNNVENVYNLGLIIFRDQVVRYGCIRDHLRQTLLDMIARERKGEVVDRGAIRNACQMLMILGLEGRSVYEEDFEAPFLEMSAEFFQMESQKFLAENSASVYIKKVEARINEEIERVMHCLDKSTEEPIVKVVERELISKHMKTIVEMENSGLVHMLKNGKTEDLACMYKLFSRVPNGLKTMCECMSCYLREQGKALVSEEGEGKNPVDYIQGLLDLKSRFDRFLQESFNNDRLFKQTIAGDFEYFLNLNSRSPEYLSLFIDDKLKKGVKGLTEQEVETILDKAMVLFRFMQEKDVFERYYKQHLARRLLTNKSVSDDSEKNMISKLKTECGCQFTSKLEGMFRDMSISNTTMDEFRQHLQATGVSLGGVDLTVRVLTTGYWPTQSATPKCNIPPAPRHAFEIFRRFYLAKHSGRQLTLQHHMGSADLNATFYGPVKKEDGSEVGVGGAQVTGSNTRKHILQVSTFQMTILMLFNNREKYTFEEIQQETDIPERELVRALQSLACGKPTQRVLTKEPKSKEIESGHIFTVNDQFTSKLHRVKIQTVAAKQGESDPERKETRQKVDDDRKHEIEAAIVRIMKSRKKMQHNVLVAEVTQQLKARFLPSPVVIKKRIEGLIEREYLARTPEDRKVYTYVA
# UniProt Q9JJ48: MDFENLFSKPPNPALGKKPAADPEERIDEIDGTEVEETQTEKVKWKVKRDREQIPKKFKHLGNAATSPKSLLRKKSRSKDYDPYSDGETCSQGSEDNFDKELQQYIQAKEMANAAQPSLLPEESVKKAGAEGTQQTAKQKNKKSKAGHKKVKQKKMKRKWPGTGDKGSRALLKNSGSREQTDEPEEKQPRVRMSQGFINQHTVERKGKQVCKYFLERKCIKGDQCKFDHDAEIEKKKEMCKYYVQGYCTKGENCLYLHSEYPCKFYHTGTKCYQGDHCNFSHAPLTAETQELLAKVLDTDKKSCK
# UniProt Q9DCN2: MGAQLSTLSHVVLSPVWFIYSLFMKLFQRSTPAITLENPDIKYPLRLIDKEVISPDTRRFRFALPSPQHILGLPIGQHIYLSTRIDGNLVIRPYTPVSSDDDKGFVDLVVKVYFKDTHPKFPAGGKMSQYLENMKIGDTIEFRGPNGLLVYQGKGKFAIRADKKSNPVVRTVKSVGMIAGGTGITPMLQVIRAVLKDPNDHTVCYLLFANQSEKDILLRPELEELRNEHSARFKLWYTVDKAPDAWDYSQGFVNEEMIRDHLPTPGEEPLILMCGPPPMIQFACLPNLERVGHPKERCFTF
# UniProt Q9JK81: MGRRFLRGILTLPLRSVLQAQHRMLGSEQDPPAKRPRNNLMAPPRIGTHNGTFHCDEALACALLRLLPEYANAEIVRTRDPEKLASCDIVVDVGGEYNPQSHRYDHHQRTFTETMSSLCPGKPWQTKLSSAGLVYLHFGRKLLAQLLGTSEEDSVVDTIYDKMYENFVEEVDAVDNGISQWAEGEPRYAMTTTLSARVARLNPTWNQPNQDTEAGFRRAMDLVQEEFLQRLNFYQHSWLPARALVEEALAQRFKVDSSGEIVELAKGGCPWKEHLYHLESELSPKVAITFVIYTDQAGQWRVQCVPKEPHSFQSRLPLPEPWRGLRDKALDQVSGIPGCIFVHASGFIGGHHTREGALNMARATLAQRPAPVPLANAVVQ
# UniProt Q9QUR7, whole entry: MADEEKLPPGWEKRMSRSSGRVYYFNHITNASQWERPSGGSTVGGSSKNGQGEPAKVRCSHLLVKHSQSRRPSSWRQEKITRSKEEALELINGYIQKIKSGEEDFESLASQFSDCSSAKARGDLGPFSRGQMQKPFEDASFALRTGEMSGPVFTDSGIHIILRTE
# UniProt Q9DCL2: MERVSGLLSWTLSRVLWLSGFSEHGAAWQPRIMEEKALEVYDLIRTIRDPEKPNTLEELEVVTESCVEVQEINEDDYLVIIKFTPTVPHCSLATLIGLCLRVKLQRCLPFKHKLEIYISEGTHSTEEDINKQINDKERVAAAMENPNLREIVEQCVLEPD
# UniProt Q9JII5: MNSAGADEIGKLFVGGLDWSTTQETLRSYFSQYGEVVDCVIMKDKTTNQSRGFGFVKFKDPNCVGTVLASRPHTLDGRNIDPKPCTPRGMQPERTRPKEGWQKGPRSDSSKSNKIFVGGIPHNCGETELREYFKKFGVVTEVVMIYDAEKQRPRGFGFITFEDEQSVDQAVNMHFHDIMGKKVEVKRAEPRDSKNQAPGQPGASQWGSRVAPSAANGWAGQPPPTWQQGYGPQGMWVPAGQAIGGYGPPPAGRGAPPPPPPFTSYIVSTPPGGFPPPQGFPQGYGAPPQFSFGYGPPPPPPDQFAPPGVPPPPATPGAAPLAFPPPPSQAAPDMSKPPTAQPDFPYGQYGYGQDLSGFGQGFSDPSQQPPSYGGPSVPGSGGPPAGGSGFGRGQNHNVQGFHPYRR
# UniProt Q9JHI9: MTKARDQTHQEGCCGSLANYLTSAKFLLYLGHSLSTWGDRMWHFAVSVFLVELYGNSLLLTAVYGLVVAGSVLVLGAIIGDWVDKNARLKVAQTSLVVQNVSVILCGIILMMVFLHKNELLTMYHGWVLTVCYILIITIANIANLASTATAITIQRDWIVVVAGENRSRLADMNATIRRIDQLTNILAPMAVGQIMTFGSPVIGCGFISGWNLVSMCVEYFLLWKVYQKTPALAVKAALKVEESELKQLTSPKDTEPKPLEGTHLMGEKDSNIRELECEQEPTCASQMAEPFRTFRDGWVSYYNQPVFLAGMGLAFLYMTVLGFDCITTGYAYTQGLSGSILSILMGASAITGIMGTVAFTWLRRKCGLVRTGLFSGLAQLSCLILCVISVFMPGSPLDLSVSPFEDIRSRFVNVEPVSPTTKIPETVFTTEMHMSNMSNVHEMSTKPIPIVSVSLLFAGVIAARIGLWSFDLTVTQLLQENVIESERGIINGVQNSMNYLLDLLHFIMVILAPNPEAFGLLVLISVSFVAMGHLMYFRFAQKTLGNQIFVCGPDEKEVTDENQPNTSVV
# UniProt Q9DCY0: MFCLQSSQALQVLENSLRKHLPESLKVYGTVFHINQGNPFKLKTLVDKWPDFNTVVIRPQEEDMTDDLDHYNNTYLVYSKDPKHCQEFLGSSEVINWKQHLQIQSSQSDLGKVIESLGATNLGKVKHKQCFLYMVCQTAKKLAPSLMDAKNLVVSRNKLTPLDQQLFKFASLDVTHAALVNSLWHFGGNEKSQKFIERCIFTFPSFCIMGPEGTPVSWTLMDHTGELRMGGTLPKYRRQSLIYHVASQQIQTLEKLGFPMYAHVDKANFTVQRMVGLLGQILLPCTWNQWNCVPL
# UniProt Q9DCB8: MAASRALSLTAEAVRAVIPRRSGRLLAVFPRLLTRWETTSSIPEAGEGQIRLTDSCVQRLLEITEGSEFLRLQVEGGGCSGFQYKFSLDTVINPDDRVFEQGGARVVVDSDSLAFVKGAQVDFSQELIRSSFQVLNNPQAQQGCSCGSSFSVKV
# UniProt Q9JHE7: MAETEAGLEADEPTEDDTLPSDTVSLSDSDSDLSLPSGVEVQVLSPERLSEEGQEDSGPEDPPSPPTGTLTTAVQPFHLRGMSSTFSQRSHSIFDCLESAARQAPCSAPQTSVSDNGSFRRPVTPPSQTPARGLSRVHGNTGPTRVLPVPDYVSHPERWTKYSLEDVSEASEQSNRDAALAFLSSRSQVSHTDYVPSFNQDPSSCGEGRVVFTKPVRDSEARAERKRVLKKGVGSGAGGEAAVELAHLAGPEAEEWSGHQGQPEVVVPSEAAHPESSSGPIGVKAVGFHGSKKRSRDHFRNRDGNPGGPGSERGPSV
# This is one part of the list. Most entries show no effect beyond the scatter of the controls.
# Compound: CN[C@@H]1C[C@H]2O[C@@](C)([C@@H]1OC)n1c3ccccc3c3c4c(c5c6ccccc6n2c5c31)C(=O)NC4 [staurosporine]
# Experiment: log2 fold change of pooled soluble protein (PISA), ligand vs vehicle (log2 ratio); higher = more thermally stabilized
# Conditions: ligand concentration: 20 uM; assay format: PISA pool 52.9/55.5/58.6 C
row,Target,log2 fold change of pooled soluble protein
1,UniProt Q9JJ06,-0.225
2,UniProt Q9ESU6,0.0238
3,UniProt Q9EQ06,-0.163
4,UniProt Q9QXY6,0.062
5,UniProt Q9DCS3,0.154
6,UniProt Q9DCX2,0.0545
7,UniProt Q9JL61,0.0558
8,UniProt Q9ET54,0.0231
9,UniProt Q9JLV5,0.0794
10,UniProt Q9EPR2,-0.347
11,UniProt Q9JMH6,-0.0882
12,UniProt Q9EQS9,0.109
13,UniProt Q9JKB3,0.00537
14,UniProt Q9EPL8,0.179
15,UniProt Q9JJ48,-0.389
16,UniProt Q9JIF7,0.0654
17,UniProt Q9EP96,0.102
18,UniProt Q9DCS9,-0.0394
19,UniProt Q9DCN2,-0.0676

row,Target,log2 fold change of pooled soluble protein
1,UniProt Q9DCL9,-0.0731
2,UniProt Q9DC61,0.116
3,UniProt Q9QXF8,-0.0239
4,UniProt Q9EP72,0.0787
5,UniProt Q9JK81,-0.368
6,UniProt Q9QUR7,0.243
7,UniProt Q9DCH4,-0.0835
8,UniProt Q9JJI8,0.301
9,UniProt Q9DCL2,-0.277
10,UniProt Q9JII5,0.245
11,UniProt Q9JHI9,0.0368
12,UniProt Q9DCY0,-0.147
13,UniProt Q9QY24,-0.00528
14,UniProt Q9EQQ9,-0.152
15,UniProt Q9QXG4,-0.011
16,UniProt Q9DCB8,-0.083
17,Q9QUK9;Q9R0T7,-0.0858
18,UniProt Q9JHE7,-0.0816

# Quoted at random: 2 records from the list, in no set order.
row,Target,log2 fold change of pooled soluble protein
7,UniProt Q9DCH4,-0.0835
10,UniProt Q9JII5,0.245
